Key:
[1] = tested on: HFF cells; experiment: Cytotoxicity assay, Cell Counting Kit-8, HFF cells; details: selectivity index, HFF cells versus B. microti
[2] = tested on: Vero cells; experiment: Cytotoxicity assay, Cell Counting Kit-8, Vero cells; details: selectivity index, Vero cells versus B. microti

Row | Compound | SI HFF [1] | SI Vero [2]
1 | Tannic acid | 51.35 | 74.61
2 | CC1=C(CSC(=S)N2CCCCC2)C(=O)c2ccccc2C1=O [PKM2 inhibitor] | 16.16 | 34.10
3 | O=c1cc(-c2ccc(O)cc2)oc2cc(O)cc(O)c12 [Apigenin] | 15.70 | 27.88

Reference: paper PMC8481833, “Kinetic Characterization and Inhibitor Screening of Pyruvate Kinase I From Babesia microti” (Frontiers in Microbiology, 2021)
